Laboratory results: patent publication US20080008652A1, “Methods and compositions for mediation of immune responses and adjuvant activity” (The Regents of the University of Michigan, priority 2006, published 2008)
For at least one compound, name, drawing or mass did not settle the structure.

How the values were obtained:
[1] = test system: peritoneal macrophages and bone marrow-derived macrophages (BMDM); assay: Cytokine secretion (IL-1β, IL-18, TNFα, IL-6) by stimulated macrophages, ELISA; assay type: cell-based, mouse
caspase-1 = assay: Caspase-1 activation (pro-caspase-1 processing) in macrophages, Western blotting; assay type: cell-based, mouse
[2] = WT compared with cryopyrin−/− peritoneal macrophages or BMDM, 24 h stimulation, ELISA

**Q.** `CCOCc1nc2c(N)nc3ccccc3c2n1CC(C)(C)O` [R848, Resiquimod] was tested. Which “secretion of IL-1β with brief ATP treatment” value ([1]; WT compared with cryopyrin−/− macrophages, ligand 16 h, then 2 mM ATP 30 min) did it give?
**A.** Its value is “Cryopyrin is required”.

**Q.** And the “secretion of IL-1β” value [1, 2]?
**A.** The value was “abrogated”.

**Q.** What about the “secretion of IL-18” value [1, 2] of the same molecule?
**A.** Its value is “abrogated”.

**Q.** What about the “proteolytic processing of pro-caspase-1 (mature 20 kDa subunit)” value (caspase-1; WT macrophages, ligand 1-3 h, then ATP 30 min) of the same molecule?
**A.** The value was “induced in WT macrophages”.

**Q.** What about the “activation of caspase-1” value (caspase-1; cryopyrin−/− macrophages) of the same molecule?
**A.** Its value is “abrogated in macrophages lacking cryopyrin”.

**Q.** What about the “activation of caspase-1” value (caspase-1; macrophages lacking ASC) of the same molecule?
**A.** Its value is “abrogated”.
